Laboratory results reported in patent US20240190970A1.
No constants are given. Whether binding was seen depends on the method and setting. Some entries that bind do so weakly or less than the wild type.

Legend:
[1] = target: Gal9 (%Gal9+ of CD3+, CD11b+ and EpCam+ cells); test: flow cytometry, % Gal9+ among CD3+ cells, S3 fraction of a colorectal carcinoma biopsy
[2] = target: Gal9 (%Gal9+ of CD3+, CD11b+ and EpCam+ cells); test: flow cytometry, % Gal9+ among CD3+ cells, S2 fraction of a colorectal carcinoma biopsy
[3] = target: Gal9 (%Gal9+ of CD3+, CD11b+ and EpCam+ cells); test: flow cytometry, % Gal9+ among CD11b+ cells, S3 fraction of a colorectal carcinoma biopsy
[4] = target: Gal9 (%Gal9+ of CD3+, CD11b+ and EpCam+ cells); test: flow cytometry, % Gal9+ among EpCam+ cells, S3 fraction of a colorectal carcinoma biopsy
[5] = target: Gal9 (%Gal9+ of CD3+, CD11b+ and EpCam+ cells); test: flow cytometry, % Gal9+ among CD11b+ cells, S2 fraction of a colorectal carcinoma biopsy
[6] = target: Gal9 (%Gal9+ of CD3+, CD11b+ and EpCam+ cells); test: flow cytometry, % Gal9+ among EpCam+ cells, S2 fraction of a colorectal carcinoma biopsy
[7] = target: Gal9 (%Gal9+ of CD3+, CD11b+ and EpCam+ cells); test: flow cytometry, % Gal9+ among CD3+ cells, S3 fraction of a pancreatic adenocarcinoma biopsy
[8] = target: Gal9 (%Gal9+ of CD3+, CD11b+ and EpCam+ cells); test: flow cytometry, % Gal9+ among CD3+ cells, S2 fraction of a pancreatic adenocarcinoma biopsy
[9] = target: Gal9 (%Gal9+ of CD3+, CD11b+ and EpCam+ cells); test: flow cytometry, % Gal9+ among CD11b+ cells, S3 fraction of a pancreatic adenocarcinoma biopsy
[10] = target: Gal9 (%Gal9+ of CD3+, CD11b+ and EpCam+ cells); test: flow cytometry, % Gal9+ among EpCam+ cells, S3 fraction of a pancreatic adenocarcinoma biopsy
[11] = target: Gal9 (%Gal9+ of CD3+, CD11b+ and EpCam+ cells); test: flow cytometry, % Gal9+ among CD11b+ cells, S2 fraction of a pancreatic adenocarcinoma biopsy
[12] = target: Gal9 (%Gal9+ of CD3+, CD11b+ and EpCam+ cells); test: flow cytometry, % Gal9+ among EpCam+ cells, S2 fraction of a pancreatic adenocarcinoma biopsy
[13] = target: Gal9 (%Gal9+ of CD3+, CD11b+ and EpCam+ cells); test: flow cytometry, % Gal9+ among CD3+ cells, S3 fraction of a second pancreatic adenocarcinoma biopsy
[14] = target: Gal9 (%Gal9+ of CD3+, CD11b+ and EpCam+ cells); test: flow cytometry, % Gal9+ among CD3+ cells, S2 fraction of a second pancreatic adenocarcinoma biopsy
[15] = target: Gal9 (%Gal9+ of CD3+, CD11b+ and EpCam+ cells); test: flow cytometry, % Gal9+ among CD11b+ cells, S3 fraction of a second pancreatic adenocarcinoma biopsy
[16] = target: Gal9 (%Gal9+ of CD3+, CD11b+ and EpCam+ cells); test: flow cytometry, % Gal9+ among EpCam+ cells, S3 fraction of a second pancreatic adenocarcinoma biopsy
[17] = target: Gal9 (%Gal9+ of CD3+, CD11b+ and EpCam+ cells); test: flow cytometry, % Gal9+ among CD11b+ cells, S2 fraction of a second pancreatic adenocarcinoma biopsy
[18] = target: Gal9 (%Gal9+ of CD3+, CD11b+ and EpCam+ cells); test: flow cytometry, % Gal9+ among EpCam+ cells, S2 fraction of a second pancreatic adenocarcinoma biopsy
[19] = target: galectin-9 on the cell surface of the galectin-9 positive CRL-2134 cell line (human (human cancer cell line)) (UniProt O00182); test: cell-based binding
[20] = target: cynomolgus galectin-9 CRD2 domain (cynomolgus monkey); test: bead-based binding assay
[21] = target: galectin-9 on the cell surface of the galectin-9 positive CRL-2134 cell line (human (human cancer cell line)) (UniProt O00182); test: cell surface staining, flow cytometry
[22] = target: cynomolgus galectin-9 CRD2 domain (cynomolgus monkey); test: in vitro binding (summary of Table 17)
[23] = target: Galectin-9 on CDI's HuProt Human Proteome Microarray (human) (UniProt O00182); test: HuProt Human Proteome Microarray, fluorescent secondary antibody
[24] = target: Galectin-9 on CDI's HuProt Human Proteome Microarray (human) (UniProt O00182); test: HuProt array, High-Spec antibody cross-reactivity assay, native proteins

Measured: binding

B1: G9.2-17 Fab (Fab, V domains shown)
VH: EVQLVESGGGLVQPGGSLRLSCAASGFTVSSSSIHWVRQAPGKGLEWVAYISSSSGYTYYADSVKGRFTISADTSKNTAYLQMNSLRAEDTAVYYCARYWSYPSWWPYRGMDYWGQGTLVTVSS
VL: DIQMTQSPSSLSASVGDRVTITCRASQSVSSAVAWYQQKPGKAPKLLIYSASSLYSGVPSRFSGSRSGTDFTLTISSLQPEDFATYYCQQSSTDPITFGQGTKVEIKR
binds: [1] | [2] | [3] | [4] | [5] | [6] | [7] | [8] | [9] | [10] | [11] | [12] | [13] | [14] | [15] | [16] | [17] | [18]

B2: G9.2-17 mIgG1 (antibody, V domains shown)
VH: B1 VH
VL: B1 VL
binds: [19] | [20]

B3: G9.2-17 (IgG4) (antibody, V domains shown)
VH: B1 VH
VL: B1 VL
binds: [21] | [22] | [23] | [24]
